# From the supplement of paper PMC11438910
# This is one part of the list. Only a few entries rise above the background.
# Legend:
# Assay in all cases: fluorescence intensity of antibody binding to polysaccharide-coupled beads; higher = stronger binding
# [1] = molecular target: pneumococcal polysaccharide Pn16F
# Method: (§1)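 Recombinant rhesus-murine chimeric IgG1 antibodies were tested against antigen-coupled MagPlex beads in a 96-plex Luminex direct immunoassay (dLIA). The beads carried pneumococcal capsular polysaccharides of 93 serotypes plus C-polysaccharides. Antibody was added at 0.1–12,500 ng/mL for 1 h, then PE anti-mouse IgG, and net MFI was read on a Bio-Plex 3D. Only the rhesus variable regions are printed; constant regions are murine IgG1/kappa/lambda, and the signal peptide is MGWSCIILFLVATATGVHS.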
# [2] = molecular target: pneumococcal polysaccharide Pn17A
# Method: as §1
# [3] = molecular target: pneumococcal polysaccharide Pn17F
# Method: as §1
# [4] = molecular target: pneumococcal polysaccharide Pn18A
# Method: as §1
# [5] = molecular target: pneumococcal polysaccharide Pn18B
# Method: as §1
# [6] = molecular target: pneumococcal polysaccharide Pn18C
# Method: as §1
# [7] = molecular target: pneumococcal polysaccharide Pn18F
# Method: as §1
# [8] = molecular target: pneumococcal polysaccharide Pn19A
# Method: as §1
# [9] = molecular target: pneumococcal polysaccharide Pn19B
# Method: as §1
# [10] = molecular target: pneumococcal polysaccharide Pn19C
# Method: as §1
# [11] = molecular target: pneumococcal polysaccharide Pn19F
# Method: as §1
# [12] = molecular target: pneumococcal polysaccharide Pn2
# Method: as §1
# [13] = molecular target: pneumococcal polysaccharide Pn20A
# Method: as §1
# [14] = molecular target: pneumococcal polysaccharide Pn20B
# Method: as §1
# [15] = molecular target: pneumococcal polysaccharide Pn21
# Method: as §1
# [16] = molecular target: pneumococcal polysaccharide Pn22A
# Method: as §1
# [17] = molecular target: pneumococcal polysaccharide Pn22F
# Method: as §1
# [18] = molecular target: pneumococcal polysaccharide Pn23A
# Method: as §1
# [19] = molecular target: pneumococcal polysaccharide Pn23B
# Method: as §1
# [20] = molecular target: pneumococcal polysaccharide Pn23F
# Method: as §1
# [21] = molecular target: pneumococcal polysaccharide Pn24A
# Method: as §1
# [22] = molecular target: pneumococcal polysaccharide Pn24B
# Method: as §1
# [23] = molecular target: pneumococcal polysaccharide Pn24F
# Method: as §1
# [24] = antibody concentration 81.7561 ng/mL
# [25] = antibody concentration 437.17 ng/mL
# [26] = antibody concentration 2337.65 ng/mL
# [27] = antibody concentration 12500 ng/mL
# [28] = antibody concentration 0.1 ng/mL
# [29] = antibody concentration 0.534724 ng/mL
# [30] = antibody concentration 2.8593 ng/mL
# [31] = antibody concentration 15.2894 ng/mL
binder,measurement,setting,value
4-99.5 (protein) chain 1: QVQLQESGPGLVKPSETLSLTCAVSGYSISSGYYWGWIRQPPGKGLEYIGYISGSSGSPYYNPSLKSRVTISKDTSKNQFSLKLSSATAADTAVYYCARRQVGIGFDYWGQGVLVTVSS chain 2: QAAPTQPPSVSGSPGQSVTISCTGTSSDIGYYNAVSWYQQHPGKAPKLMIYEVSKRPSGVSDRFSGSKSGNTASLTISGLQAEDEADYYCSSYAGSNTYIFGAGTRLTVL,fluorescence intensity,[1]; [24],22.5 MFI
same,fluorescence intensity,[1]; [25],26 MFI
same,fluorescence intensity,[1]; [26],28.2 MFI
same,fluorescence intensity,[1]; [27],37.5 MFI
same,fluorescence intensity,[2]; [28],21.5 MFI
same,fluorescence intensity,[2]; [29],22 MFI
same,fluorescence intensity,[2]; [30],20.5 MFI
same,fluorescence intensity,[2]; [31],20 MFI
same,fluorescence intensity,[2]; [24],22 MFI
same,fluorescence intensity,[2]; [25],21 MFI
same,fluorescence intensity,[2]; [26],22.5 MFI
same,fluorescence intensity,[2]; [27],24 MFI
same,fluorescence intensity,[3]; [28],26.5 MFI
same,fluorescence intensity,[3]; [29],27 MFI
same,fluorescence intensity,[3]; [30],26.5 MFI
same,fluorescence intensity,[3]; [31],27 MFI
same,fluorescence intensity,[3]; [24],25.8 MFI
same,fluorescence intensity,[3]; [25],28.5 MFI
same,fluorescence intensity,[3]; [26],29.8 MFI
same,fluorescence intensity,[3]; [27],30.8 MFI
same,fluorescence intensity,[4]; [28],25 MFI
same,fluorescence intensity,[4]; [29],24.5 MFI
same,fluorescence intensity,[4]; [30],23.5 MFI
same,fluorescence intensity,[4]; [31],22 MFI
same,fluorescence intensity,[4]; [24],23.5 MFI
same,fluorescence intensity,[4]; [25],25.5 MFI
same,fluorescence intensity,[4]; [26],25 MFI
same,fluorescence intensity,[4]; [27],30.5 MFI
same,fluorescence intensity,[5]; [28],30 MFI
same,fluorescence intensity,[5]; [29],31.8 MFI
same,fluorescence intensity,[5]; [30],29 MFI
same,fluorescence intensity,[5]; [31],29 MFI
same,fluorescence intensity,[5]; [24],30 MFI
same,fluorescence intensity,[5]; [25],32 MFI
same,fluorescence intensity,[5]; [26],34 MFI
same,fluorescence intensity,[5]; [27],40.5 MFI
same,fluorescence intensity,[6]; [28],19.2 MFI
same,fluorescence intensity,[6]; [29],19 MFI
same,fluorescence intensity,[6]; [30],21.5 MFI
same,fluorescence intensity,[6]; [31],19.5 MFI
same,fluorescence intensity,[6]; [24],18.8 MFI
same,fluorescence intensity,[6]; [25],20.5 MFI
same,fluorescence intensity,[6]; [26],21.8 MFI
same,fluorescence intensity,[6]; [27],27 MFI
same,fluorescence intensity,[7]; [28],24.2 MFI
same,fluorescence intensity,[7]; [29],23 MFI
same,fluorescence intensity,[7]; [30],24 MFI
same,fluorescence intensity,[7]; [31],23.5 MFI
same,fluorescence intensity,[7]; [24],24.5 MFI
same,fluorescence intensity,[7]; [25],26 MFI
same,fluorescence intensity,[7]; [26],26.5 MFI
same,fluorescence intensity,[7]; [27],34.5 MFI
same,fluorescence intensity,[8]; [28],19.5 MFI
same,fluorescence intensity,[8]; [29],20 MFI
same,fluorescence intensity,[8]; [30],17.5 MFI
same,fluorescence intensity,[8]; [31],19.8 MFI
same,fluorescence intensity,[8]; [24],18.5 MFI
same,fluorescence intensity,[8]; [25],19 MFI
same,fluorescence intensity,[8]; [26],20 MFI
same,fluorescence intensity,[8]; [27],26 MFI
same,fluorescence intensity,[9]; [28],30.5 MFI
same,fluorescence intensity,[9]; [29],32.5 MFI
same,fluorescence intensity,[9]; [30],30 MFI
same,fluorescence intensity,[9]; [31],28 MFI
same,fluorescence intensity,[9]; [24],29.5 MFI
same,fluorescence intensity,[9]; [25],30 MFI
same,fluorescence intensity,[9]; [26],34.8 MFI
same,fluorescence intensity,[9]; [27],80.5 MFI
same,fluorescence intensity,[10]; [28],26 MFI
same,fluorescence intensity,[10]; [29],26.2 MFI
same,fluorescence intensity,[10]; [30],26 MFI
same,fluorescence intensity,[10]; [31],25 MFI
same,fluorescence intensity,[10]; [24],25.5 MFI
same,fluorescence intensity,[10]; [25],25.5 MFI
same,fluorescence intensity,[10]; [26],28 MFI
same,fluorescence intensity,[10]; [27],54.5 MFI
same,fluorescence intensity,[11]; [28],26 MFI
same,fluorescence intensity,[11]; [29],26 MFI
same,fluorescence intensity,[11]; [30],27.5 MFI
same,fluorescence intensity,[11]; [31],27 MFI
same,fluorescence intensity,[11]; [24],25.5 MFI
same,fluorescence intensity,[11]; [25],28 MFI
same,fluorescence intensity,[11]; [26],29.5 MFI
same,fluorescence intensity,[11]; [27],36.5 MFI
same,fluorescence intensity,[12]; [28],19.5 MFI
same,fluorescence intensity,[12]; [29],21.2 MFI
same,fluorescence intensity,[12]; [30],19.5 MFI
same,fluorescence intensity,[12]; [31],21 MFI
same,fluorescence intensity,[12]; [24],20.5 MFI
same,fluorescence intensity,[12]; [25],22.5 MFI
same,fluorescence intensity,[12]; [26],23.2 MFI
same,fluorescence intensity,[12]; [27],29.2 MFI
same,fluorescence intensity,[13]; [28],24.5 MFI
same,fluorescence intensity,[13]; [29],22.8 MFI
same,fluorescence intensity,[13]; [30],23 MFI
same,fluorescence intensity,[13]; [31],21.5 MFI
same,fluorescence intensity,[13]; [24],23 MFI
same,fluorescence intensity,[13]; [25],24.5 MFI
same,fluorescence intensity,[13]; [26],25.5 MFI
same,fluorescence intensity,[13]; [27],56.8 MFI
same,fluorescence intensity,[14]; [28],26.5 MFI
same,fluorescence intensity,[14]; [29],25 MFI
same,fluorescence intensity,[14]; [30],25 MFI
same,fluorescence intensity,[14]; [31],24 MFI
same,fluorescence intensity,[14]; [24],24 MFI
same,fluorescence intensity,[14]; [25],24.5 MFI
same,fluorescence intensity,[14]; [26],25 MFI
same,fluorescence intensity,[14]; [27],32 MFI
same,fluorescence intensity,[15]; [28],19.2 MFI
same,fluorescence intensity,[15]; [29],20.5 MFI
same,fluorescence intensity,[15]; [30],21 MFI
same,fluorescence intensity,[15]; [31],19.5 MFI
same,fluorescence intensity,[15]; [24],19 MFI
same,fluorescence intensity,[15]; [25],20 MFI
same,fluorescence intensity,[15]; [26],21.5 MFI
same,fluorescence intensity,[15]; [27],23 MFI
same,fluorescence intensity,[16]; [28],21.8 MFI
same,fluorescence intensity,[16]; [29],22.5 MFI
same,fluorescence intensity,[16]; [30],24.5 MFI
same,fluorescence intensity,[16]; [31],22.8 MFI
same,fluorescence intensity,[16]; [24],23 MFI
same,fluorescence intensity,[16]; [25],24.5 MFI
same,fluorescence intensity,[16]; [26],23 MFI
same,fluorescence intensity,[16]; [27],36 MFI
same,fluorescence intensity,[17]; [28],31.2 MFI
same,fluorescence intensity,[17]; [29],32 MFI
same,fluorescence intensity,[17]; [30],33.2 MFI
same,fluorescence intensity,[17]; [31],27.5 MFI
same,fluorescence intensity,[17]; [24],32.2 MFI
same,fluorescence intensity,[17]; [25],33.8 MFI
same,fluorescence intensity,[17]; [26],32.8 MFI
same,fluorescence intensity,[17]; [27],36.8 MFI
same,fluorescence intensity,[18]; [28],24.2 MFI
same,fluorescence intensity,[18]; [29],23.5 MFI
same,fluorescence intensity,[18]; [30],25.5 MFI
same,fluorescence intensity,[18]; [31],23.5 MFI
same,fluorescence intensity,[18]; [24],28 MFI
same,fluorescence intensity,[18]; [25],29 MFI
same,fluorescence intensity,[18]; [26],38.5 MFI
same,fluorescence intensity,[18]; [27],56.5 MFI
same,fluorescence intensity,[19]; [28],32 MFI
same,fluorescence intensity,[19]; [29],31 MFI
same,fluorescence intensity,[19]; [30],28.5 MFI
same,fluorescence intensity,[19]; [31],29.5 MFI
same,fluorescence intensity,[19]; [24],31.5 MFI
same,fluorescence intensity,[19]; [25],30.5 MFI
same,fluorescence intensity,[19]; [26],32.5 MFI
same,fluorescence intensity,[19]; [27],38.5 MFI
same,fluorescence intensity,[20]; [28],19.2 MFI
same,fluorescence intensity,[20]; [29],18.5 MFI
same,fluorescence intensity,[20]; [30],18.8 MFI
same,fluorescence intensity,[20]; [31],18.5 MFI
same,fluorescence intensity,[20]; [24],16.5 MFI
same,fluorescence intensity,[20]; [25],18.8 MFI
same,fluorescence intensity,[20]; [26],21 MFI
same,fluorescence intensity,[20]; [27],25 MFI
same,fluorescence intensity,[21]; [28],16 MFI
same,fluorescence intensity,[21]; [29],15.5 MFI
same,fluorescence intensity,[21]; [30],15.5 MFI
same,fluorescence intensity,[21]; [31],16 MFI
same,fluorescence intensity,[21]; [24],15.5 MFI
same,fluorescence intensity,[21]; [25],16.5 MFI
same,fluorescence intensity,[21]; [26],18 MFI
same,fluorescence intensity,[21]; [27],22 MFI
same,fluorescence intensity,[22]; [28],18.5 MFI
same,fluorescence intensity,[22]; [29],19 MFI
same,fluorescence intensity,[22]; [30],17.5 MFI
same,fluorescence intensity,[22]; [31],17.5 MFI
same,fluorescence intensity,[22]; [24],17.5 MFI
same,fluorescence intensity,[22]; [25],19 MFI
same,fluorescence intensity,[22]; [26],20.2 MFI
same,fluorescence intensity,[22]; [27],34 MFI
same,fluorescence intensity,[23]; [28],15.5 MFI
same,fluorescence intensity,[23]; [29],19 MFI
same,fluorescence intensity,[23]; [30],15 MFI
same,fluorescence intensity,[23]; [31],16.8 MFI
same,fluorescence intensity,[23]; [24],16.5 MFI
same,fluorescence intensity,[23]; [25],17.5 MFI
same,fluorescence intensity,[23]; [26],24 MFI
same,fluorescence intensity,[23]; [27],35.5 MFI

# Shown tab-delimited: entries from further up.
binder	measurement	setting	value
4-99.5 (protein) chain 1: QVQLQESGPGLVKPSETLSLTCAVSGYSISSGYYWGWIRQPPGKGLEYIGYISGSSGSPYYNPSLKSRVTISKDTSKNQFSLKLSSATAADTAVYYCARRQVGIGFDYWGQGVLVTVSS chain 2: QAAPTQPPSVSGSPGQSVTISCTGTSSDIGYYNAVSWYQQHPGKAPKLMIYEVSKRPSGVSDRFSGSKSGNTASLTISGLQAEDEADYYCSSYAGSNTYIFGAGTRLTVL	fluorescence intensity	[3]; [29]	27 MFI
same	fluorescence intensity	[3]; [30]	26.5 MFI
same	fluorescence intensity	[3]; [31]	27 MFI
same	fluorescence intensity	[3]; [24]	25.8 MFI
same	fluorescence intensity	[3]; [25]	28.5 MFI
same	fluorescence intensity	[3]; [26]	29.8 MFI
same	fluorescence intensity	[3]; [27]	30.8 MFI
